Values from PubChem BioAssay AID743454 (Peter MacCallum Cancer Centre, 2014).
This is one part, drawn at random, of about 18,000 deposited reagents. 450 of all reagents (2.5%) were called active. 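Single biological run; no consistent viability z cut-off exists, so the class columns, not z-scores, define the calls.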 A number with no mark means an inactive call. No sequences are given here.

- Assay: 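Search for knock-downs that restore vorinostat killing in resistant colon cancer cells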 (primary screen)
- Cell system: human HCT116-VR colon cancer cells, selected for vorinostat resistance
- Reagents: siRNA pool against human genes, 40 nM siRNA pool
- Duration: vorinostat for 24 h, read-out about 72 h after transfection
- Conditions: vorinostat at 2.5 µM final
- Read-out: 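Cell viability by CellTiter-Fluor and caspase 3/7 activity by luminescence, each scaled to mock wells per plate, duplicates averaged, then robust z-scored over all plates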
- Reading the numbers: viability robust z-score: higher = more viable cells than screen typical; caspase robust z-score: higher = more caspase 3/7 activity than screen typical
- Hit rule: 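Hits are knock-downs in viability class RV1/RV2 or caspase class CA1/CA2, excluding ones that killed cells in the no-drug cell-count arm; hits then retested with single siRNAs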

no.	gene symbol	viability hit class	caspase hit class	viability robust z-score	caspase robust z-score
1	SLC5A7	no change	no change	-0.9	0.88
2	C9orf72	no change	no change	0.36	-1.06
3	SPAG6	no change	no change	-1.47	1.75
4	KRTAP3-2	no change	no change	0.2	0.55
5	ARPIN	no change	no change	-2.25	2.36
6	OR5C1	no change	no change	-0.8	0.94
7	CDC42EP4	no change	no change	0.09	3.04
8	UBL7	no change	no change	1	-0.71
9	PRDM13	no change	no change	-2.15	2.46
10	H2BC5	no change	no change	-0.96	-0.85
11	SCLT1	no change	no change	1.16	-0.87
12	PCDHA2	no change	no change	-1.02	-0.78
13	UCP3	no change	no change	1.37	1.17
14	AP3S2	no change	no change	0.4	-0.02
15	PNCK	no change	no change	0.26	2.17
16	GTPBP8	no change	no change	0.62	-0.55
17	SPATS2	no change	no change	1.44	-0.45
18	GAPDH	no change	no change	-0.44	-0.74
19	ARMC5	no change	no change	1.8	1.89
20	HSPB6	no change	no change	-0.8	-0.53
21	ACAP3	no change	no change	-0.19	-0.5
22	SAXO2	no change	no change	-0.18	-0.55
23	REP15	no change	no change	-0.48	-1.32
24	MAPK6	no change	no change	-0.08	-0.56
25	ELOA	no change	no change	1.04	-0.24
26	HARS2	no change	no change	-0.12	0
27	RSL24D1	no change	no change	-3.16	1.42
28	MAPKAPK2	no change	no change	0.51	-0.09
29	MAT2B	no change	no change	-0.38	-0.07
30	ODAD3	no change	no change	1.21	-0.58
31	MB21D2	no change	no change	0.56	-0.64
32	ATP10A	no change	no change	-0.01	-0.3
33	HAUS3	no change	no change	-0.13	-0.88
34	PHF21B	no change	no change	-1.08	0.89
35	WDR73	no change	no change	0.39	-0.42
36	RFT1	no change	no change	-3.95	3.46
37	HPS6	no change	no change	0.68	-1.12
38	RPL3L	no change	no change	-0.45	-0.14
39	OR51V1	no change	no change	0.5	0.56
40	ICAM4	no change	no change	-0.74	-0.08
41	TMEM42	no change	no change	-0.27	0.26
42	CASP10	no change	no change	0.44	-0.31
43	ARMCX5	no change	no change	-0.48	-0.99
44	OR4C12	no change	no change	1.53	-0.68
45	FKBP5	no change	no change	0.22	-0.2
46	RNF186	no change (active)	CA1 (caspase activation)	-1.46	10.8
47	FRAT1	no change	no change	0.01	4.31
48	DGKG	no change	no change	1.38	0.37
49	C6orf120	no change	no change	0.97	-0.22
50	CEP135	no change	no change	-0.1	0.06
51	DUSP12	no change	no change	-1.51	-0.76
52	NAA11	no change	no change	0.25	0.03
53	ELAVL4	no change	no change	-0.33	0.74
54	DNASE1L3	no change	no change	0.02	2.2
55	HHIPL2	no change	no change	1.14	0.94
56	SERGEF	no change	no change	0.08	0.44
57	MLPH	no change	no change	-0.42	0.36

6 entries already listed, sorted by “caspase robust z-score”, descending.
gene symbol	viability hit class	caspase hit class	viability robust z-score	caspase robust z-score
PRDM13	no change	no change	-2.15	2.46
UCP3	no change	no change	1.37	1.17
UBL7	no change	no change	1	-0.71
PCDHA2	no change	no change	-1.02	-0.78
H2BC5	no change	no change	-0.96	-0.85
SCLT1	no change	no change	1.16	-0.87
